The supplement of paper PMC6411743
± gives the standard deviation of the averaged measurements. The list shows a part of the results.

Amino acid sequences for entries named in this document (tags omitted). A change or cut given only in a name is not applied to a line headed by its entry.
UniProt Q96PZ2, whole entry: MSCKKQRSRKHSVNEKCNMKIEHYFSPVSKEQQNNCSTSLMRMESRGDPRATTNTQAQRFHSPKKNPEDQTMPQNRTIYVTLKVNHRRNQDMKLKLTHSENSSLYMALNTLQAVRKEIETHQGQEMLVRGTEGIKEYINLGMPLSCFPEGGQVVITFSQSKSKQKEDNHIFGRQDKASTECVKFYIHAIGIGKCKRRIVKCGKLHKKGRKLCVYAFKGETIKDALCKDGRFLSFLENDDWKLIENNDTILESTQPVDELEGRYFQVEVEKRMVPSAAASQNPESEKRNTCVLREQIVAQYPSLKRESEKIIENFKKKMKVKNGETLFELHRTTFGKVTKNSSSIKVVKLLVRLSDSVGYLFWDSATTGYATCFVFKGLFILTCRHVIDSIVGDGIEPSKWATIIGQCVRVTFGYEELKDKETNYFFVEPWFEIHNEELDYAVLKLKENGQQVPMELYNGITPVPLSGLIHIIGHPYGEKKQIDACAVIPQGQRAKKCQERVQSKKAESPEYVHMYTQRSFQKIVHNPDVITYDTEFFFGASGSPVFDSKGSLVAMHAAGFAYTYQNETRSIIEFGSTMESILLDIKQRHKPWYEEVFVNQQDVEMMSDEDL
UniProt Q9BQA1, whole entry: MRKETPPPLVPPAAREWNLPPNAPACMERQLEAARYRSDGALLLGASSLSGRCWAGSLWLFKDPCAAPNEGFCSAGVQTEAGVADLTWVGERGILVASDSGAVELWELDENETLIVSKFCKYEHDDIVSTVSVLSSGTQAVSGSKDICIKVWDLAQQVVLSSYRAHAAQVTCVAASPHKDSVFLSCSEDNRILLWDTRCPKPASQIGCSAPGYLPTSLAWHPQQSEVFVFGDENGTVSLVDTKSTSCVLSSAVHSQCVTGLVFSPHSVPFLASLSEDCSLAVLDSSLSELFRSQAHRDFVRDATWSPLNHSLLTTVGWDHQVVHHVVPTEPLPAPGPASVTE
UniProt Q9BQ61: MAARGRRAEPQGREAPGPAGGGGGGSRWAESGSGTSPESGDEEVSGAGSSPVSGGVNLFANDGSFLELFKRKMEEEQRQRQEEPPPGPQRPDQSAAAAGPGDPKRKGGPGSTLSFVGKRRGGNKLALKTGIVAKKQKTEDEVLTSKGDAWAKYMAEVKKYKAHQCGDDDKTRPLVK
UniProt Q96S55: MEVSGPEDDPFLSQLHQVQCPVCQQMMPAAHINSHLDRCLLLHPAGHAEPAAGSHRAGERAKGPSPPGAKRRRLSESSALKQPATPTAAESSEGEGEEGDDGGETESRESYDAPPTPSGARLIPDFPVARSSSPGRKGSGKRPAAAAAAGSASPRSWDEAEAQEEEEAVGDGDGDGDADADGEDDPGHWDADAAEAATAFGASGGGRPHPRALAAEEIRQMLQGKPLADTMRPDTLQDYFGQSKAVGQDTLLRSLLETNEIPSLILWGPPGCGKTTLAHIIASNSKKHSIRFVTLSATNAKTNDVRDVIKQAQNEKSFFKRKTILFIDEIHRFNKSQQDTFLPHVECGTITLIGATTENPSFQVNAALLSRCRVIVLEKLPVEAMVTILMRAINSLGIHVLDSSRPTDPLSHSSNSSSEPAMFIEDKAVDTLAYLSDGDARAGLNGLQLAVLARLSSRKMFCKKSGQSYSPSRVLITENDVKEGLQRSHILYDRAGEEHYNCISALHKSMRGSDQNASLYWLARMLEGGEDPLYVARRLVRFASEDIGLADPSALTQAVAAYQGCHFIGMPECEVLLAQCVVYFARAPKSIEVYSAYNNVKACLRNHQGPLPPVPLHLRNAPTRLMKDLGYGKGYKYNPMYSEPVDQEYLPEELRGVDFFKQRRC
UniProt Q96KP4: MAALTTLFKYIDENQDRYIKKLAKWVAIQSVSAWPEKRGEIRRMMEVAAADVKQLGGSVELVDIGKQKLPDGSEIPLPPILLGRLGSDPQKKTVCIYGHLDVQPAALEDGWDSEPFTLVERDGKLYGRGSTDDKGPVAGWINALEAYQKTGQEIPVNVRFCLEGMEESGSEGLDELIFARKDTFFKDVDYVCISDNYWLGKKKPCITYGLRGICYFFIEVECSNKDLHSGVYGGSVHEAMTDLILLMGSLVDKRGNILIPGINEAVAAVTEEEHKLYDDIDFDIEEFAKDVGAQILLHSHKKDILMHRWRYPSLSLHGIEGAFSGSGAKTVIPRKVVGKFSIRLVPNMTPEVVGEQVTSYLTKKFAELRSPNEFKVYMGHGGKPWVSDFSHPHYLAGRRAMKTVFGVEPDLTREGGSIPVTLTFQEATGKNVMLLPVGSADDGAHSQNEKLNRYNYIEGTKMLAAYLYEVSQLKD
UniProt Q99523, whole entry: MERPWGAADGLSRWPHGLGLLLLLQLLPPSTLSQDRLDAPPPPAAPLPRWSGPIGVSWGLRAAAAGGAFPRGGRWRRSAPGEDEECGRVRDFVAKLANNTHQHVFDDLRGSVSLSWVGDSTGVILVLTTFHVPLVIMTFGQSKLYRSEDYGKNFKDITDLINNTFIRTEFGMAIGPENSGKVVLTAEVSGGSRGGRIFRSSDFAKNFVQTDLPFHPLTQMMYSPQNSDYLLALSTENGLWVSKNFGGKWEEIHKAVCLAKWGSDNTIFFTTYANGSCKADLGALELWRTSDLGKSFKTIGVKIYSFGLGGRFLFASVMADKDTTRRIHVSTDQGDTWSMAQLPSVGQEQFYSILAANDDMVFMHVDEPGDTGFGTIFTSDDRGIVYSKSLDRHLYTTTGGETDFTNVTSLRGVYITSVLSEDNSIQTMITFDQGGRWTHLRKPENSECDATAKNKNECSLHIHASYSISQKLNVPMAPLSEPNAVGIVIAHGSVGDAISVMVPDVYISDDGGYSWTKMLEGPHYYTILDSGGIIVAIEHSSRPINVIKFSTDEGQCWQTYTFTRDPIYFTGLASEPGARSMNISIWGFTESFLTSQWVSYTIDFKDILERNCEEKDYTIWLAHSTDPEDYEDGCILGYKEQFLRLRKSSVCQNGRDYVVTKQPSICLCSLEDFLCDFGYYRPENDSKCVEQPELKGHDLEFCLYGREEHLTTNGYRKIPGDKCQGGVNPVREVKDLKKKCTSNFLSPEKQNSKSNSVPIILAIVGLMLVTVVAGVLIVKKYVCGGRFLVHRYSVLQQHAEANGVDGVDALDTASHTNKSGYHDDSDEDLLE
UniProt Q99549: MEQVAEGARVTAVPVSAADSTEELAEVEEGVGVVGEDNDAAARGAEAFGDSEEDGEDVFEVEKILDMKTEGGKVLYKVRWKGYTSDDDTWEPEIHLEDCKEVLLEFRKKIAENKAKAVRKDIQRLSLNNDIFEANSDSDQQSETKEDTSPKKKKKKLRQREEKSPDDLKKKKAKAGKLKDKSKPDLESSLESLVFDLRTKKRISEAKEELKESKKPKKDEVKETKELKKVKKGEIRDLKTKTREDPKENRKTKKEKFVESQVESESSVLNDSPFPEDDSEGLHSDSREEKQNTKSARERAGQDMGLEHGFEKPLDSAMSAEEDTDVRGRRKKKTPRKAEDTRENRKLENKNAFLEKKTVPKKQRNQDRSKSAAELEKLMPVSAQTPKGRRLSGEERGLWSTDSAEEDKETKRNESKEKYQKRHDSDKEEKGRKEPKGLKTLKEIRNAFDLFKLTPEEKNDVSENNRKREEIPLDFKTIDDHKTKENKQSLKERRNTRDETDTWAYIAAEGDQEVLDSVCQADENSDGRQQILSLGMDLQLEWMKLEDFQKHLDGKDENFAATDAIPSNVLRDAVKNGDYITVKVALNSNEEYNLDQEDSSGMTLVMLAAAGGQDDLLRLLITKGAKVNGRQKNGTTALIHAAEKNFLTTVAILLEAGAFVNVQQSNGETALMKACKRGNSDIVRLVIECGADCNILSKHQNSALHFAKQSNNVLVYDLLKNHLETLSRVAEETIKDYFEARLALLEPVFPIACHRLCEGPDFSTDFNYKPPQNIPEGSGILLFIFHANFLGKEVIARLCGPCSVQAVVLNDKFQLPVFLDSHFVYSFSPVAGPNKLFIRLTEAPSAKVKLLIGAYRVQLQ
UniProt Q9BV81: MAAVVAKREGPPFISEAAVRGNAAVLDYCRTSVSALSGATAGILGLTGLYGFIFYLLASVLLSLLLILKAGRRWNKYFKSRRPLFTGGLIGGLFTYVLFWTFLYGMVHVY
UniProt Q9BVG9: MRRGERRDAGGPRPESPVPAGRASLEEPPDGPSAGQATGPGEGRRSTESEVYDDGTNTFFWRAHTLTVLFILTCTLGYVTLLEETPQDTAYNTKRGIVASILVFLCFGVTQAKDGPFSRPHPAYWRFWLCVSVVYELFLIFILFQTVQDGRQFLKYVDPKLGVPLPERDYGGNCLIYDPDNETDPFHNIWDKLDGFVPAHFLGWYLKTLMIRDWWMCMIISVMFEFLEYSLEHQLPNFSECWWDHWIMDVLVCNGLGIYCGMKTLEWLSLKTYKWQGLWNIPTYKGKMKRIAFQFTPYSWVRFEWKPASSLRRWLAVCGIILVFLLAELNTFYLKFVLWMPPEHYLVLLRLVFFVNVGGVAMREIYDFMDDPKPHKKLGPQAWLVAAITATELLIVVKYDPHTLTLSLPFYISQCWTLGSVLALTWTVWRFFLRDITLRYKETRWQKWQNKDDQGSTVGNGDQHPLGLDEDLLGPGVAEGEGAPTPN
UniProt Q9BYC5: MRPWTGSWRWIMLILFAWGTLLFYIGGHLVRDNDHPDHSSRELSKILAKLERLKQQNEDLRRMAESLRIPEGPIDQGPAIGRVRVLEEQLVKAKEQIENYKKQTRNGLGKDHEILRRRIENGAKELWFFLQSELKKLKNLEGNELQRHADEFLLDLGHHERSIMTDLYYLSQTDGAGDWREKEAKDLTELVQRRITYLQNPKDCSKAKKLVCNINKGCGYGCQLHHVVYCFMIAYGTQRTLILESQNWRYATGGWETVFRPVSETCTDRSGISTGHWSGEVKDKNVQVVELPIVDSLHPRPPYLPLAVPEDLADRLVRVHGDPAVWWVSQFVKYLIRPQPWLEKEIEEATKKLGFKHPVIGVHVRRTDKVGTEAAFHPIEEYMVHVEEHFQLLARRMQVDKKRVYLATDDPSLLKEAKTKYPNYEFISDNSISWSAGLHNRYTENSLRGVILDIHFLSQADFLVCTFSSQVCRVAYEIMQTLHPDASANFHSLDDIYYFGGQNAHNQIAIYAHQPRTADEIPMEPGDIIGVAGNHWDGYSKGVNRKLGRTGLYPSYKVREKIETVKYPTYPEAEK
UniProt Q96LJ7: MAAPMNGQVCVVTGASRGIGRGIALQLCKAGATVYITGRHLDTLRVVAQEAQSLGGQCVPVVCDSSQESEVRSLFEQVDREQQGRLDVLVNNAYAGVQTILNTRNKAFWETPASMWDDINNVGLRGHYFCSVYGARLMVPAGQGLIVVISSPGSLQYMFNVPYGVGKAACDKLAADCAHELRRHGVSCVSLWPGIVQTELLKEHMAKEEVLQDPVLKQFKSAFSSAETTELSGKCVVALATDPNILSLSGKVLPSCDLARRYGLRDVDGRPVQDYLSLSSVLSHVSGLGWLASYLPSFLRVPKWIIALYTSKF
UniProt Q9BQ52: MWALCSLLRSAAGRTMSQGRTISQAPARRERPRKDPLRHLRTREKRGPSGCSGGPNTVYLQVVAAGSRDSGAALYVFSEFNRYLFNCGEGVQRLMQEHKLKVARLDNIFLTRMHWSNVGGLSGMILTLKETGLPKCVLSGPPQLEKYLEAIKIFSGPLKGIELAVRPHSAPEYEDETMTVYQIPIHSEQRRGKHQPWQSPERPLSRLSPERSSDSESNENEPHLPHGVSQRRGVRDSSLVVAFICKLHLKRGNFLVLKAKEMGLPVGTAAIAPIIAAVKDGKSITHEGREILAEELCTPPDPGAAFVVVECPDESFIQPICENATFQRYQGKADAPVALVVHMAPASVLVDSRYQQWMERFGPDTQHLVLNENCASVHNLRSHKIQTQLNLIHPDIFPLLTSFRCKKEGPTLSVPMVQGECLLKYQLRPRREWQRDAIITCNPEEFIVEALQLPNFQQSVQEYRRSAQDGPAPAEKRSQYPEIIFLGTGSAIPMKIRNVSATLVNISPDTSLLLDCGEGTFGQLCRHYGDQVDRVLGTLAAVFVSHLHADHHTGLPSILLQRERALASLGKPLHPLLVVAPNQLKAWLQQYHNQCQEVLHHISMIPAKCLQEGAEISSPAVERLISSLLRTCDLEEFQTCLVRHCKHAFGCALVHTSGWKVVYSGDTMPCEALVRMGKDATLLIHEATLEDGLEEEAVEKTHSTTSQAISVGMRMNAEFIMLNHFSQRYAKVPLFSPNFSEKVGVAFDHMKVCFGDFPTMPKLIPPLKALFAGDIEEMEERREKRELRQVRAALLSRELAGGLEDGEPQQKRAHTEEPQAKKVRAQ

Compound: Nc1nc2c(ncn2[C@@H]2O[C@H](COP(=O)(O)OP(=O)(O)OP(=O)(O)O)[C@@H](O)[C@H]2O)c(=O)[nH]1 [guanosine triphosphate]
Assay: NP40-soluble protein abundance relative to vehicle (solubility fold change) (ratio); higher = more soluble protein in presence of GTP
Outline: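 Jurkat crude lysate prepared with a Dounce homogeniser was treated at eight concentrations spanning 0.1 to 10 mM, 10 min at room temperature then 3 min at 37 °C. Solubilisation with 0.8% NP40 and benzonase and ultracentrifugation preceded TMT labelling of the supernatant for LC-MS/MS. Fold change against the detergent-processed vehicle was determined per replicate from vsn-normalised intensities, across three independent experiments.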

Target	NP40-soluble protein abundance (concentration: 0.1mM)	NP40-soluble protein abundance (concentration: 0.5mM)	NP40-soluble protein abundance (concentration: 1mM)	NP40-soluble protein abundance (concentration: 2mM)	NP40-soluble protein abundance (concentration: 4mM)	NP40-soluble protein abundance (concentration: 6mM)	NP40-soluble protein abundance (concentration: 8mM)	NP40-soluble protein abundance (concentration: 10mM)
UniProt Q9BQC6	1.03 ± 0.13	1.14 ± 0.2	1.42 ± 0.42	1.6 ± 0.51	1.52 ± 0.6	1.58 ± 0.53	1.24 ± 0.38	1.49 ± 0.59
FAM111A (UniProt Q96PZ2)	1.01 ± 0.1	0.987 ± 0.078	1.06 ± 0.049	1.15 ± 0.047	1.1 ± 0.08	1.13 ± 0.15	1.23 ± 0.034	1.21 ± 0.091
WDR77 (UniProt Q9BQA1)	1.08 ± 0.053	1.01 ± 0.022	0.984 ± 0.038	1.05 ± 0.019	1.12 ± 0.086	1.04 ± 0.017	1.08 ± 0.038	1.02 ± 0.013
UniProt Q9BRP8-2|Q9BRP8	1.07 ± 0.15	1.05 ± 0.09	1.13 ± 0.12	1.11 ± 0.14	1.04 ± 0.11	1.14 ± 0.15	1.1 ± 0.16	1.13 ± 0.14
UniProt Q9BQ61 and related entries	1.03 ± 0.048	1.07 ± 0.1	1.022 ± 0.0085	0.993 ± 0.078	0.92 ± 0.11	1.02 ± 0.089	1.11 ± 0.069	1.1 ± 0.059
COPS4 (UniProt Q9BT78)	0.898 ± 0.06	0.885 ± 0.037	1.01 ± 0.11	1.03 ± 0.1	1.03 ± 0.12	1.01 ± 0.12	0.977 ± 0.073	1.02 ± 0.12
UniProt Q96S55 and related entries	1 ± 0.044	1.01 ± 0.031	0.979 ± 0.047	1.01 ± 0.057	1.02 ± 0.057	1.02 ± 0.074	1.03 ± 0.086	1.02 ± 0.098
CNDP2 (UniProt Q96KP4)	0.976 ± 0.025	0.985 ± 0.0099	0.935 ± 0.04	0.907 ± 0.039	0.886 ± 0.057	0.885 ± 0.035	0.861 ± 0.044	0.853 ± 0.071
UniProt Q99523 and related entries	0.955 ± 0.012	0.926 ± 0.026	0.9811 ± 0.0087	0.967 ± 0.024	0.947 ± 0.066	0.973 ± 0.052	0.98 ± 0.043	1.02 ± 0.012
UniProt Q99549 and related entries	0.982 ± 0.069	1.04 ± 0.078	1.04 ± 0.04	1.07 ± 0.075	1.06 ± 0.023	1.13 ± 0.013	1.15 ± 0.048	1.21 ± 0.072
UniProt Q9BV81	1.02 ± 0.068	0.951 ± 0.061	0.971 ± 0.037	1.01 ± 0.016	0.98 ± 0.067	0.966 ± 0.084	0.96 ± 0.076	0.992 ± 0.074
PTDSS2 (UniProt Q9BVG9)	1.05 ± 0.05	1.08 ± 0.063	0.963 ± 0.062	0.976 ± 0.034	0.964 ± 0.054	0.97 ± 0.085	0.976 ± 0.095	0.978 ± 0.083
FUT8 (UniProt Q9BYC5)	1.03 ± 0.094	1.05 ± 0.076	1.06 ± 0.051	0.965 ± 0.043	1.02 ± 0.069	0.99 ± 0.08	1.01 ± 0.16	1 ± 0.069
DHRS1 (UniProt Q96LJ7)	1.04 ± 0.054	0.998 ± 0.067	0.987 ± 0.12	0.958 ± 0.078	0.946 ± 0.089	0.97 ± 0.093	0.921 ± 0.076	0.926 ± 0.095
UniProt Q9BQ52 and related entries	1.009 ± 0.0066	1.01 ± 0.031	0.949 ± 0.025	0.954 ± 0.018	0.9477 ± 0.0043	0.922 ± 0.016	0.92 ± 0.03	0.904 ± 0.02
